Measurements reported in PMC9630536.
Changes are numbered by the printed parent chain. These are yes or no findings as the source states them, for the method shown. In cells and extracts the contact can be indirect. Some entries that bind do so weakly or less than the wild type. Tags and fused reporters may be left off the sequences shown.

B1: mCherry-tagged adipose triglyceride lipase (protein, UniProt Q96AD5 1-504)
chain: MFPREKTWNISFAGCGFLGVYYVGVASCLREHAPFLVANATHIYGASAGALTATALVTGVCLGEAGAKFIEVSKEARKRFLGPLHPSFNLVKIIRSFLLKVLPADSHEHASGRLGISLTRVSDGENVIISHFNSKDELIQANVCSGFIPVYCGLIPPSLQGVRYVDGGISDNLPLYELKNTITVSPFSGESDICPQDSSTNIHELRVTNTSIQFNLRNLYRLSKALFPPEPLVLREMCKQGYRDGLRFLQRNGLLNRPNPLLALPPARPHGPEDKDQAVESAQAEDYSQLPGEDHILEHLPARLNEALLEACVEPTDLLTTLSNMLPVRLATAMMVPYTLPLESALSFTIRLLEWLPDVPEDIRWMKEQTGSICQYLVMRAKRKLGRHLPSRLPEQVELRRVQSLPSVPLSCAAYREALPGWMRNNLSLGDALAKWEECQRQLLLGLFCTNVAFPPEALRMRAPADPAPAPADPASPQHQLAGPAPLLSTPAPEARPVIGALGL
B2: mCherry-tagged adipose triglyceride lipase, Q96AD5 1-504 (protein)
chain: B1 chain

How the values were obtained:
[1] = biological target: T1, GFP-tagged 17β-hydroxysteroid dehydrogenase 13 S33A mutant (human) (UniProt Q7Z5P4); assay: co-IP; 293T cells transfected with GFP- or myc-tagged 17β-HSD13 (WT or S33A) and mCherry-ATGL; lysates incubated with the indicated beads (anti-GFP beads in Fig. 5b) for 1 h; washed 5 times with buffer containing 250 mM NaCl; immunoblot
T1 sequence: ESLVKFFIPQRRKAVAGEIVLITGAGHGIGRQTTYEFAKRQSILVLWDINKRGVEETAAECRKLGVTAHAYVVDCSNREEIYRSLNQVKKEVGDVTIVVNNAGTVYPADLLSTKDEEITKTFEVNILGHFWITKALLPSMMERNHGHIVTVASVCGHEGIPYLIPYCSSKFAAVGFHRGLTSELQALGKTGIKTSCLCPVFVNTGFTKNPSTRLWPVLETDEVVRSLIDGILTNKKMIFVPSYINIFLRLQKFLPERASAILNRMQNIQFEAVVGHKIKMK

[2] = biological target: T2, myc-tagged 17β-hydroxysteroid dehydrogenase 13 wild type (UniProt Q7Z5P4); assay: as above
T2 sequence: T1 sequence with A14S

[3] = biological target: T3, GFP-tagged 17β-hydroxysteroid dehydrogenase 13 wild type (human) (UniProt Q7Z5P4); assay: as above
T3 sequence: T1 sequence with A14S

GST-17β-HSD13 = biological target: T4, GST-17β-HSD13 (UniProt Q7Z5P4); assay: pull-down; Glutathione-Sepharose beads precoated with 1 μg GST-17β-HSD13 or GST, incubated with lysates of 293T cells overexpressing mCherry-ATGL (1 μg); western blot; only the target purified
T4 sequence: T1 sequence with A14S

Flag-CGI-58, Q8WTS1 = biological target: T5, Flag-CGI-58, Q8WTS1; assay: co-IP; 293T cells co-transfected with Flag-CGI-58, MC-ATGL and GFP, GFP-17β-HSD13 or GFP-17β-HSD13 S33A, with or without forskolin for 30 min; lysates immunoprecipitated with anti-flag beads; ATGL detected with anti-mCherry antibody; conditions: remark: other sources report otherwise
T5 chain: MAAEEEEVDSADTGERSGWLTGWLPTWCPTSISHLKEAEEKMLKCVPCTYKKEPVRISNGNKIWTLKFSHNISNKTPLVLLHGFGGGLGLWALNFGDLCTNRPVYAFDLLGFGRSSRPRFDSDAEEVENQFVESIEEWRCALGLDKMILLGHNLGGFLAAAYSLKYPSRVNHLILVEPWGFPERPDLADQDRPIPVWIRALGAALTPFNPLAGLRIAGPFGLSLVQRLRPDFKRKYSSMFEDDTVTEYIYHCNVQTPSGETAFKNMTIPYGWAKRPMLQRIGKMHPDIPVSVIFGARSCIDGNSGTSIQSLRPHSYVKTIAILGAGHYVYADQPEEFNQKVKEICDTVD

Binder | binding [1] | binding [2] | binding [3] | binding (GST-17β-HSD13) | binding (Flag-CGI-58, Q8WTS1)
B1 | binds | binds | binds | binds | –
B2 | – | – | – | – | binds
